# Measurements: paper PMC12741935 (Alzheimer's & Dementia, 2025)
# System: brain proteome
# Assay: Brain proteomics (DIA LC-MS/MS) after chronic NVS-PAK1-1 100 mg/kg BID PO vs vehicle in 5xFAD mice
# Format: in vivo
# Conditions: for number of proteins down in 5xFAD and up in NVS-PAK1-1 / number of proteins up in 5xFAD and down in NVS-PAK1-1: either cohort
# Experimental: A total of 91 brain samples were prepared from mice in this study and analyzed by mass spectrometry proteomics. One third of the mixed‐chopped left hemisphere tissue was homogenized in 8 M urea lysis buffer (8 M urea, 10 mM Tris, 100 mM NaH2PO4, pH 8.5) with HALT protease and phosphatase inhibitor cocktail (Thermo Fisher) and sonicated for three cycles consisting of 5 seconds of active sonication at 30% amplitude, followed by 15 seconds on ice. Samples were then centrifuged for 5 minutes at 15,000 g and the supernatant was transferred to a new tube. Protein concentration was determined by bicinchoninic acid (BCA) assay (Pierce). For protein digestion, 200 µg of each sample was aliquoted and volumes normalized with additional lysis buffer. Samples were reduced with 5 mM DTT at room temperature for 30 minutes, followed by 10 mM iodoacetamide (IAA) alkylation in the dark for another 30 minutes. Lysyl endopeptidase (Wako) at 1:25 (w/w) was added, and digestion allowed to proceed overnight. Samples were then 7‐fold diluted with 50 mM ammonium bicarbonate. Trypsin (Promega) was then added at 1:25 (w/w) and digestion proceeded overnight. The peptide solutions were acidified to a final concentration of 1% (vol/vol) FA and 0.1% (vol/vol) TFA and desalted with a 10 mg HLB column (Oasis). Each HLB column was first rinsed with 1 mL of methanol, washed with 1 mL 50% (vol/vol) acetonitrile (ACN), and equilibrated with 2 × 1 mL 0.1% (vol/vol) TFA. The samples were then loaded onto the column and washed with 2 × 1 mL 0.1% (vol/vol) TFA. Elution was performed with 0.5 mL 50% (vol/vol) ACN. Samples were split into 50 µL and 400 µL aliquots. Residuals from all samples were combined to create a global internal standard pool.
# Samples were resuspended in an equal volume of loading buffer (0.1% FA, 0.03% TFA, 1% ACN) and analyzed by LC‐MS/MS. Peptide eluents (1 µg) were separated on a Water's CSH (15 cm × 150 µM internal diameter [ID] with 1.7 µm CSH resin) by a Dionex Ultimate 3000 RSLCnano (Thermo Fisher). Buffer A was water with 0.1% (vol/vol) formic acid, and buffer B was 80% (vol/vol) acetonitrile in water with 0.1% (vol/vol) FA. Elution was performed over a 30 minute gradient. The gradient was from 1% to 99% solvent B. Peptides were monitored on an Orbitrap Fusion Lumos mass spectrometer (Thermo Fisher). Each cycle consisted of one full scan (MS1) performed with an m/z range of 380 to 985 at a 60,000 resolution at standard settings and 30 data independent scans (DIA) in 1.5 seconds. The higher energy collision‐induced dissociation (HCD) tandem scans were collected at 30% collision energy with an isolation of 10 m/z, a resolution of 15,000, an AGC setting of 200% normalized AGC target, and a maximum injection time set to 40 ms.
# Raw data files were converted to mzML format for downstream processing using ThermoRawFilerParser v.1.4.4.[30] The data were processed using Data‐Independent Acquisition by Neural Network (DIA‐NN) v.1.9.1.[31] A spectral library was generated using all canonical mouse proteins from UniProt and SwissProt (accessed September 24, 2024) and contaminants from the Common Repository of Adventitious Proteins (cRAP) database [https://www.thegpm.org/crap/]; these contaminant proteins were excluded from normalization and downstream analysis. DIA‐NN was run using parameters specified as follows: precursor charge was set from 1 to 4 and precursor m/z was set from 200 to 5000. Enzyme digestion was set to strict trypsin with 1 allowed missed cleavage, peptide length was set from 7 to 50, and peptide m/z was set from 150 to 3000. The maximum number of variable modifications was set to 3 and methionine oxidation was allowed as a variable modification. Cysteine carbamidomethylation was allowed as a fixed modification. MS1 and MS2 mass accuracy (in ppm) were set using autodetect and the scan window was set using autodetect. The false discovery rate (FDR) threshold was set to 1%. […]
compound,measurement,setting,value
"CC(C)NC(=O)N1CC[C@H](NC2=Nc3cc(F)ccc3N(CC(F)F)c3ccc(Cl)cc32)C1 [NVS‐PAK1‐1, (S)‐3‐([2‐chloro‐5‐(2,2‐difluoroethyl)‐8‐fluoro‐5H‐dibenzo[b,e][1,4]diazepin‐11‐yl]amino)‐N‐isopropylpyrrolidine‐1‐carboxamide]","number of significantly differentially expressed proteins, NVS-PAK1-1 vs vehicle-treated 5xFAD",aged cohort females,101
same,"number of significantly differentially expressed proteins, NVS-PAK1-1 vs vehicle-treated 5xFAD",aged cohort males,134
same,number of proteins down in 5xFAD and up in NVS-PAK1-1,"females, adjusted P ≤ 0.05",22
same,number of proteins up in 5xFAD and down in NVS-PAK1-1,"females, adjusted P ≤ 0.05",63
same,number of proteins down in 5xFAD and up in NVS-PAK1-1,"males, adjusted P ≤ 0.05",24
same,number of proteins up in 5xFAD and down in NVS-PAK1-1,"males, adjusted P ≤ 0.05, overlap not significant",20
same,"number of significantly differentially expressed proteins, NVS-PAK1-1 vs vehicle-treated 5xFAD",young cohort females,190
same,"number of significantly differentially expressed proteins, NVS-PAK1-1 vs vehicle-treated 5xFAD",young cohort males,129
